This is an account of results in PMC7819943, “Rice protein-binding microarrays: a tool to detect cis-acting elements near promoter regions in rice”.

The list shows a part of the results.

The test has as its target T1, OsSMF1 (Oryza sativa, UniProt Q6ZLB0 1-436).
T1 sequence: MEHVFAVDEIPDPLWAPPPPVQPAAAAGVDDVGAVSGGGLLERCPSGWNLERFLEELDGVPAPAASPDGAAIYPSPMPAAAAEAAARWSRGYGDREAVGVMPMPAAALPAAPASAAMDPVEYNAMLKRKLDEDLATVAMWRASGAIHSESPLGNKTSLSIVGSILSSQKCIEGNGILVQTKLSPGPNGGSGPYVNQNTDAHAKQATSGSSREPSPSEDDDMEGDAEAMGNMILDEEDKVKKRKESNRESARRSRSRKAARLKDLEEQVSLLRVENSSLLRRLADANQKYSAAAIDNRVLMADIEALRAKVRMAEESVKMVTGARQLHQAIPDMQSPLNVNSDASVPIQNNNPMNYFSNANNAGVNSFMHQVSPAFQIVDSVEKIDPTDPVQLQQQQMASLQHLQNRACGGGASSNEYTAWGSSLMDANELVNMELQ
Nature of the test: protein-binding microarray (RPBM); PBS, 2% BSA, 51.3 ng/ul salmon testes DNA, 50 uM zinc acetate, 200 nM TF, 25 C, 1 h; high values mean tight binding. The conditions noted are these: protein: recombinant; tags: N-terminal polyhistidine and DsRed monomer fusion (pET32a); chain copies: 2; label: CyDye5-dUTP incorporated in the synthesized complementary strand; 3' TTTTT single-stranded linker to array surface; dsDNA, one strand shown. The method, boiled down:
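Transcription factors, each fused N-terminally to a polyhistidine tag and DsRed, were expressed in E. coli BL21-CodonPlus and purified on Ni–NTA. A custom Agilent array was made double-stranded by primer extension with Cy5-dUTP and blocked with 2% BSA. It was incubated with 200 nM protein in PBS, 2% BSA, salmon testes DNA and 50 µM zinc acetate at 25 °C for 1 h, then washed. The binding signal is per-feature fluorescence intensity (arbitrary units) read on an Axon 4000B scanner.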
On to “CCACGCGGCCACGCAACGATCCCCTTTTAGTTTCTGCGCTCGGAGTCACCTAGTGCAG”, for which the binding signal was 5590 fluorescence intensity (a.u.).
To “ATAGTAGAGAAGGGATTTGCATCATCAAATATCGCCGTAGCGGAGTCACCTAGTGCAG” belongs 3180 fluorescence intensity (a.u.); to “TGGCTCACAGCTTTGCATTCGGCAGCTAACGCCACGCCCACGGAGTCACCTAGTGCAG”, 22300 fluorescence intensity (a.u.); to “GCTGCATGCCTGCAAAATTTAACACCACCTAGAGAGATCACGGAGTCACCTAGTGCAG”, 24400 fluorescence intensity (a.u.).
In the case of “ACCGCCGCCGCCGCCGCCCGCGCCGCCGACGAGATAGAGACGGAGTCACCTAGTGCAG” it was 3520 fluorescence intensity (a.u.).
To “ACCTACTAACTTATCTTTCATCCCCTGGTAAATCTAGTCGCGGAGTCACCTAGTGCAG” belongs 4600 fluorescence intensity (a.u.).
For “TAATTTCTTGATGATGTGGAGTTTATGGAAACCATATTTACGGAGTCACCTAGTGCAG”, the binding signal is 7250 fluorescence intensity (a.u.).
In the case of “GTGTTTGGGGTTCTTGGAATTGATCATGGCAGGTGGCGAACGGAGTCACCTAGTGCAG” it was 13500 fluorescence intensity (a.u.); in that of “TCGGTGACAAAGGTGGTGGGATCTTGCTTCTCTTCCTGCACGGAGTCACCTAGTGCAG”, 3160 fluorescence intensity (a.u.).
To “AGGGTGGGTTACGTCGACAGACACTGGATAAGATCAATCCCGGAGTCACCTAGTGCAG” belongs 4130 fluorescence intensity (a.u.).
Regarding “AAAATTAAATTTAACCATGTCATTTTATTTCTCACACTTGCGGAGTCACCTAGTGCAG”, the binding signal is 3540 fluorescence intensity (a.u.).
Turning to “GCGGCAGGTTTCGGCGGCGGGGCGGGCGGCAGGTGTCGGCCGGAGTCACCTAGTGCAG”, the binding signal was 3890 fluorescence intensity (a.u.).
“CCCTTTGACCTACCGCGGCGCCGCCCACCTGCGCCGGCATCGGAGTCACCTAGTGCAG”: the binding signal is 3490 fluorescence intensity (a.u.).
To “GTGTGACCCTGCGTGTGCAGCGTGAGCTGGGGTGGAGCTGCGGAGTCACCTAGTGCAG” belongs 3570 fluorescence intensity (a.u.); to “TGCATTGTTTTGGTTGTAGACGTGGTTTGATAATAGTTGGCGGAGTCACCTAGTGCAG”, 10300 fluorescence intensity (a.u.); to “GAAATTTACTAACATGGGATCAGATATCGTGTCATTATTACGGAGTCACCTAGTGCAG”, 4190 fluorescence intensity (a.u.).
To “ATTGCTTTATATGGTTATTTAAGTTTATTTTGCATCCCTACGGAGTCACCTAGTGCAG” belongs 22600 fluorescence intensity (a.u.); to “CCACTGCCCTGTCTTTGCACACATCAGTCTTCCCGGAGTTCGGAGTCACCTAGTGCAG”, 4400 fluorescence intensity (a.u.); to “GGTGAGGAGCACGCGCCACGTGTCTGTACCTGGGCCCAGACGGAGTCACCTAGTGCAG”, 10700 fluorescence intensity (a.u.).
To “GAGGAGGCAAATGGGGAGGGGAAGCGATCGGAGGAGGCGGCGGAGTCACCTAGTGCAG” belongs 3320 fluorescence intensity (a.u.); to “CGGGCTGCTCGGAGGGCGGGATCGGGCACGCGATGGCGCGCGGAGTCACCTAGTGCAG”, 3190 fluorescence intensity (a.u.); to “AATTATTGGCACGCTTAGCATCAATGACAACACAATTGTGCGGAGTCACCTAGTGCAG”, 4440 fluorescence intensity (a.u.).
As to “TATTTAAATTTTATATCCTAATTTTAAAATTGATTTTGATCGGAGTCACCTAGTGCAG”, the binding signal was 19700 fluorescence intensity (a.u.).
To “GAGCTAGTCCATAAATTTGTATAGGAATCTGAGGAAAGGGCGGAGTCACCTAGTGCAG” belongs 7190 fluorescence intensity (a.u.); to “CATGCCCTCAGATCCCATTGCTGAGTAGGACGCAGATTTTCGGAGTCACCTAGTGCAG”, 3520 fluorescence intensity (a.u.).
Regarding “CCTCCACACCTACCAACCCTACTGTCACTAATAAATCATTCGGAGTCACCTAGTGCAG”, the binding signal was 3520 fluorescence intensity (a.u.).
For “TGGCGCCGCCTCTTCTTGGTTCTTCAGCCACCCTCAACCCCGGAGTCACCTAGTGCAG”, the binding signal is 3550 fluorescence intensity (a.u.).
In the case of “ATCTCGCCTCTGTGTCGACCGATCGGCCGTTGATATGATACGGAGTCACCTAGTGCAG” it was 4440 fluorescence intensity (a.u.).
Turning to “CGCGGCAGTGCTCGAGCTTGTGCTCACGTCCGCGCTTGCCCGGAGTCACCTAGTGCAG”, the binding signal is 3300 fluorescence intensity (a.u.).
To “CACGCAAAACACACGTAATCAATCTAGGGTTTGCCTCCTCCGGAGTCACCTAGTGCAG” belongs 5120 fluorescence intensity (a.u.).
To “GGCGTATGACGAGTGGGTCCACGCATCATCTATCTTCGTGCGGAGTCACCTAGTGCAG” belongs 7330 fluorescence intensity (a.u.); to “TATCCAGCACGAAAGACCAAGTAAATGGAACCTTGCATGTCGGAGTCACCTAGTGCAG”, 3390 fluorescence intensity (a.u.).
As for “CCAGGTTGAGTGGGCTCAATGATTGCCCTGTAACGGCTAGCGGAGTCACCTAGTGCAG”, the binding signal was 10400 fluorescence intensity (a.u.).
Take “ATAATGCTGACTGAACTGCCATGTGTACGCCACGTAGACCCGGAGTCACCTAGTGCAG”: the binding signal was 27600 fluorescence intensity (a.u.).
To “CTTTCTTCTTCCTCGCCCACGCGCGTGGCGCCGCCGCCGCCGGAGTCACCTAGTGCAG” belongs 3640 fluorescence intensity (a.u.).
To “TAAAGATCTATATATCCAATTTACATGACACATGTTTCGCCGGAGTCACCTAGTGCAG” belongs 17100 fluorescence intensity (a.u.); to “TCCGTCAATGGCGGGAATACATGACGTGTTCCATGTGTCGCGGAGTCACCTAGTGCAG”, 18800 fluorescence intensity (a.u.).
To “AAGCTATAATCTATCATTGTTCGTAACATGACAAGGATTTCGGAGTCACCTAGTGCAG” belongs 4350 fluorescence intensity (a.u.).
Consider “AGGCCACGTGCTCCTCCCCACATACGCCTCGTCGAGTTGTCGGAGTCACCTAGTGCAG”, for which the binding signal was 4600 fluorescence intensity (a.u.).
For the sequence “GCAGCAGCAGAAGAAGGACAGGAACACGTCGGAGACAATGCGGAGTCACCTAGTGCAG”, the binding signal was 4080 fluorescence intensity (a.u.).
To “GCCAACGCCCTCGCTGGCGGCAGCGCCGGCGCCAACGGCCCGGAGTCACCTAGTGCAG” belongs 21500 fluorescence intensity (a.u.); to “GCATGGTGGCGGCGGGAAGGAGGAGTGGGGCGGCGGGTGCCGGAGTCACCTAGTGCAG”, 3770 fluorescence intensity (a.u.).
